Results are given in words; binding and its absence hold for the method and conditions named. Binding seen in cells or lysates may run through a third protein. Binding can be weak; no strength is given.
Target: Scramb1-A-V5 (Drosophila)
Experiment: co-IP; lysate of salivary glands coexpressing both proteins; Dynabeads Protein G coupled to mouse anti-V5 (control: anti-β-galactosidase), 30 min at room temperature; 150 mM NaCl, 20 mM Tris-HCl pH 7.5, 0.5% Triton X-100, 1 mM DTT; western blot of eluates

- binding: binds
B1: Flo2-RFP (protein, UniProt O61492 1-438)
chain: MGNIHTTGPNEALIVSGGCCGSTKKRTIVGGWAWAWWLVTDVQRLSLNVMTLNPMCENVETSQGVPLTVTGVAQCKIMKSSSYKQTDYHNDEADELLGTASEQFLGKSVKEIKQTILQTLEGHLRAILGTLTVEEVYKDRDQFAALVREVAAPDVGRMGIEILSFTIKDVYDDVQYLASLGKAQTAVVKRDADAGVAEANRDAGIREAECEKSAMDVKYSTDTKIEDNTRMYKLQKANFDQEINTAKAESQLAYELQAAKIRQRIRNEEIQIEVVERRKQIEIESQEVQRKDRELTGTVKLPAEAEAFRLQTLAQAKQCQTIEGARAEAERIRKIGSAEAHAIELVGKAEAERMRMKAHVYKQYGDAAIMNIVLESLPKIAAEVAAPLAKTDEIVLIGGNDNITNDVTRLVAQLPPSINALTGVDLSKVLSKIPGAKA
